Test results: paper PMC6904755
No constants are given. Whether binding was seen depends on the method and setting. Some results given as binding are weak or reduced against the parent protein; the word gives no strength.

Biological target: Drosophila Gemin3, full-length (wild type) (Drosophila) (UniProt Q9V3C4)
Assay: two-hybrid; GAL4-BD baits (pASΔΔ, strain CG1945) mated with GAL4-AD preys (pACT2st, strain Y187); β-galactosidase activity of the GAL1-LacZ reporter measured from extracts of cells grown in –Trp–Leu medium

B1: Drosophila Gemin3, full-length (wild type) (protein, UniProt Q9V3C4 1-1028)
chain: MEREIAHSLAGGEERSSDVAPGQVKTFEELRLYRNLLNGLKRNNFVTPTKIQAAAIPMALAKMDLIIQSKSGTGKTLIYVIAVVQSFNPNINQPHAMIVVPTRELAIQVQDTFFHLCKSFRDFKCSAFIGGTDVAKDRKRMNESRVIIGTPGRLLHLYENRVFDVSKLRLLVLDEADQLYQTKSLQHTVSKLIEAMPKNRQIIACSATYDQNLDERLAKVMDKPMLISNSERATVLLGIRQFVYELPQQNNSVEEMRLKLQILGQIFNQLPYEQAIIFASSQMRADSYKNYLTASGIDCHLISGAMEQSERLHVFEGYRNFTMRILVATDLMARGVDSPHANLVINIDPPQDHVTYLHRIGRAGRFGSKGIAITFIASKKESQRFREMSKKIATAWSVLEFPKEPMPNEFNFWDFEKYNFDYYIKEENPLQEMPMPIKENRSKENVDASSVDLENLQKDQDGKRRDPDKLPVALENVETQKELELENLPESSHNNKNLRVKEKEIVRQGKLKETNSKAGGSKTNKTERRKKSNTPSKLQKQITEVQQTPEITVNKYYMQEDIQRTADGKEYHPVNGAGNHQVPSKSNQKPVEFISPELTPTLTPLELTQEPSPTTVTPPAPPANSINNKTYCLAAPTQTSSMTIQNMVISNTVDDASSISSDSMVVCGYHSDRSYDTYYATSDEEEIWNRLMSKQRRQLKSKRGHGKRRVILYKKVFPKLKANVKRKLKKRMSSSCRSKKAHHLRKRHVYKNISLLPHMNLCHLLQKFTNQERFLKRLHKYAKNQFIDNARVGFLLDKLYKSILEMYYNSAKERKKHFKEAMKESLKSIDNYESQESSESEEEEEEEKDLKNKLSVHVTNQMDIPPMPQAAVEIGSGSESDTEDSQEYGEGEEIIVDDEDDGSDGGPNSSSGFVESQESVSSGIDTSVYETESTGASGNNSSAFFISDDESDTESLTDSEAGSNVSATGSSSQRSSVASSTYESSDDDSVTVTNVSSMQNAQSLWLQTFNMQYQFIASHVAKNLQNYY
  binding: binds
